Data as given in PubChem BioAssay AID1508597 (Cure First, 2020)

Assay: 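Genes whose silencing sensitises or protects ovarian cancer cells against rucaparib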 (primary screen)
System: human ovarian carcinoma lines grown from tumours: OCI-P5x (papillary serous) and OCI-C5x (clear cell)
Reagents: siRNA pool against human genes, 1.25 pmol siRNA per well
Duration: 72 h or 96 h, depending on the cell culture
Challenge: rucaparib 20 µM (about IC30) or vehicle, present until read-out
Detection: 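Luminescent ATP-based viability assay read 72 or 96 h after transfection, depending on culture, given as normalised percent viability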
Scale: viability, normalised: higher = more viable cells remaining
Rule for the call: 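a well counts as a hit if its normalised viability is under 80 percent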
Calls: active = viability under 80%; inactive = viability 80% or more
This is an unselected part of about 2,100 deposited reagents. 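Calls flag viability under 80% in either arm, not effects specific to rucaparib; the reference for percent is not stated.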 A reagent listed more than once was tested more than once; the source does not tell the runs apart. Not stated in the record: the 100% reference.

| Target gene | rucaparib or vehicle | cell line | technical replicate | viability, normalised (%) | activity call |
| --- | --- | --- | --- | --- | --- |
| HMGB2 (high mobility group box 2) | Rucaparib | OCI-C5x (clear cell) | 1 | 76.7 | active |
| HMGB2 (high mobility group box 2) | Rucaparib | OCI-C5x (clear cell) | 1 | 57.8 | active |
| HMGB2 (high mobility group box 2) | Rucaparib | OCI-C5x (clear cell) | 2 | 49.5 | active |
| HMGB2 (high mobility group box 2) | Rucaparib | OCI-C5x (clear cell) | 2 | 60.5 | active |
| HMGB2 (high mobility group box 2) | Rucaparib | OCI-C5x (clear cell) | 3 | 52.6 | active |
| HMGB2 (high mobility group box 2) | Rucaparib | OCI-C5x (clear cell) | 3 | 67.5 | active |
| HMGB2 (high mobility group box 2) | Rucaparib | OCI-P5x (serous) | 1 | 65.8 | active |
| HMGB2 (high mobility group box 2) | Rucaparib | OCI-P5x (serous) | 1 | 111 | inactive |
| HMGB2 (high mobility group box 2) | Rucaparib | OCI-P5x (serous) | 2 | 54.6 | active |
| HMGB2 (high mobility group box 2) | Rucaparib | OCI-P5x (serous) | 2 | 118 | inactive |
| HMGB2 (high mobility group box 2) | Rucaparib | OCI-P5x (serous) | 3 | 113 | inactive |
| HMGB2 (high mobility group box 2) | Rucaparib | OCI-P5x (serous) | 3 | 71.2 | active |
| HMGB2 (high mobility group box 2) | Vehicle | OCI-C5x (clear cell) | 1 | 50.8 | active |
| HMGB2 (high mobility group box 2) | Vehicle | OCI-C5x (clear cell) | 1 | 39.8 | active |
| HMGB2 (high mobility group box 2) | Vehicle | OCI-C5x (clear cell) | 2 | 53.1 | active |
| HMGB2 (high mobility group box 2) | Vehicle | OCI-C5x (clear cell) | 2 | 65.1 | active |
| HMGB2 (high mobility group box 2) | Vehicle | OCI-C5x (clear cell) | 3 | 63.8 | active |
| HMGB2 (high mobility group box 2) | Vehicle | OCI-C5x (clear cell) | 3 | 50.3 | active |
| HMGB2 (high mobility group box 2) | Vehicle | OCI-P5x (serous) | 1 | 95.5 | inactive |
| HMGB2 (high mobility group box 2) | Vehicle | OCI-P5x (serous) | 1 | 54.6 | active |
| HMGB2 (high mobility group box 2) | Vehicle | OCI-P5x (serous) | 2 | 83.5 | inactive |
| HMGB2 (high mobility group box 2) | Vehicle | OCI-P5x (serous) | 2 | 98 | inactive |
| HMGB2 (high mobility group box 2) | Vehicle | OCI-P5x (serous) | 3 | 77 | active |
| HMGB2 (high mobility group box 2) | Vehicle | OCI-P5x (serous) | 3 | 92.4 | inactive |
